Results are given in words; binding and its absence hold for the method and conditions named. Binding seen in cells or lysates may run through a third protein. Some binding calls cover weakened binding; strength is not graded here. For some assays here: Sequences can lack the tags named with a protein.

Protein sequences, listed by entry. Tags and fused reporters are not part of them.
UniProt O60293: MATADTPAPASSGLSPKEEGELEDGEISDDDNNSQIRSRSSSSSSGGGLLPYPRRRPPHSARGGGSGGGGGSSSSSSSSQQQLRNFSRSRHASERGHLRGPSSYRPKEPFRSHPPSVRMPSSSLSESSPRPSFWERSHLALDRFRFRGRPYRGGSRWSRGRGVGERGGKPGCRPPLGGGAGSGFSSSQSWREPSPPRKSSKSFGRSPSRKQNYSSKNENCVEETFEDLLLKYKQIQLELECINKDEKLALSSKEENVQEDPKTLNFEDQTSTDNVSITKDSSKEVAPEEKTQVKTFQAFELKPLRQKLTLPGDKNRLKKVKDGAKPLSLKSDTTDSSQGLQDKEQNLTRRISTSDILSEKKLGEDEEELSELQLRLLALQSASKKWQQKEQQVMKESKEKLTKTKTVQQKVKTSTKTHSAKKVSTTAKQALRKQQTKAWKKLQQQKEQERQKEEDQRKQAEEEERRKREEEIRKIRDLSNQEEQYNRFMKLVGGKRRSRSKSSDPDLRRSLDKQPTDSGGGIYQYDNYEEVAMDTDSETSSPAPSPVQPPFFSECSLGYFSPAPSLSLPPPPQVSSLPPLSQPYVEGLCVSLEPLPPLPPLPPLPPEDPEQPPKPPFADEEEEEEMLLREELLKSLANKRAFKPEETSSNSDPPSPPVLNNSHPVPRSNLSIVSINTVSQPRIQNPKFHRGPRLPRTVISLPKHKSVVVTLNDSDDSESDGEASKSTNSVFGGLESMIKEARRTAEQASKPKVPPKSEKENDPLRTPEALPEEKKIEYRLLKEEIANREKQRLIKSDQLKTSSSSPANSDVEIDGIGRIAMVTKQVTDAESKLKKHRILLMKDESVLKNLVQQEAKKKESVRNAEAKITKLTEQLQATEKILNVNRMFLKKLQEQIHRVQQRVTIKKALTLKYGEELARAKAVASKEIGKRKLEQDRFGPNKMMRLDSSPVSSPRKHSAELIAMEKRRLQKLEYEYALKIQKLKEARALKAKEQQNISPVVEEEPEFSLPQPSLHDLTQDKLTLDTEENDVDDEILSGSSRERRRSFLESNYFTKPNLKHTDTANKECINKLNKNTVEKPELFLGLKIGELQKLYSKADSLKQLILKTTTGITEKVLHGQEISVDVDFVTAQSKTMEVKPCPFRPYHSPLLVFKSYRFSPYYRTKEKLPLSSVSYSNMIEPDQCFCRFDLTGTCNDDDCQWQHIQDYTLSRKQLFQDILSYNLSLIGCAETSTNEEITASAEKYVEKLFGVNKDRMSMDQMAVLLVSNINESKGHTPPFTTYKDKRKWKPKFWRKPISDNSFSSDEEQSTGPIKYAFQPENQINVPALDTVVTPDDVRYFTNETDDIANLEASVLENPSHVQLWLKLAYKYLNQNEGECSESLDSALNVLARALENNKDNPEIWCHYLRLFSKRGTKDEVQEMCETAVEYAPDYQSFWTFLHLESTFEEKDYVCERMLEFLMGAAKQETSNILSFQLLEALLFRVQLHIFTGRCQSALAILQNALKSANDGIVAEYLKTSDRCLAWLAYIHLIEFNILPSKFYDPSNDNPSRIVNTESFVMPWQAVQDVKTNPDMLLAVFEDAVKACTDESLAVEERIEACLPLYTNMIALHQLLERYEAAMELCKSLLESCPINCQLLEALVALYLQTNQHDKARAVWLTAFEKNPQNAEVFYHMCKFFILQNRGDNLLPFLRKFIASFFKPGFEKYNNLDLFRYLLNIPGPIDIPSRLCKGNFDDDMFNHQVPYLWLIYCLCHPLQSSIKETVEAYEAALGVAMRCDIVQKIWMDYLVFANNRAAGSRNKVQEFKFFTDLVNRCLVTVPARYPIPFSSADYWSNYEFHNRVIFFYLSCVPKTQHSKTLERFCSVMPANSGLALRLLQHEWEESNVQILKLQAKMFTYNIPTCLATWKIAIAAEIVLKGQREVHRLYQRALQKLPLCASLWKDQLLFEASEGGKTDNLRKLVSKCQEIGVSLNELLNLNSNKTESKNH

Assay [1] has as its target T1, Flag-HA-MTR4 (UniProt P42285).
T1 sequence: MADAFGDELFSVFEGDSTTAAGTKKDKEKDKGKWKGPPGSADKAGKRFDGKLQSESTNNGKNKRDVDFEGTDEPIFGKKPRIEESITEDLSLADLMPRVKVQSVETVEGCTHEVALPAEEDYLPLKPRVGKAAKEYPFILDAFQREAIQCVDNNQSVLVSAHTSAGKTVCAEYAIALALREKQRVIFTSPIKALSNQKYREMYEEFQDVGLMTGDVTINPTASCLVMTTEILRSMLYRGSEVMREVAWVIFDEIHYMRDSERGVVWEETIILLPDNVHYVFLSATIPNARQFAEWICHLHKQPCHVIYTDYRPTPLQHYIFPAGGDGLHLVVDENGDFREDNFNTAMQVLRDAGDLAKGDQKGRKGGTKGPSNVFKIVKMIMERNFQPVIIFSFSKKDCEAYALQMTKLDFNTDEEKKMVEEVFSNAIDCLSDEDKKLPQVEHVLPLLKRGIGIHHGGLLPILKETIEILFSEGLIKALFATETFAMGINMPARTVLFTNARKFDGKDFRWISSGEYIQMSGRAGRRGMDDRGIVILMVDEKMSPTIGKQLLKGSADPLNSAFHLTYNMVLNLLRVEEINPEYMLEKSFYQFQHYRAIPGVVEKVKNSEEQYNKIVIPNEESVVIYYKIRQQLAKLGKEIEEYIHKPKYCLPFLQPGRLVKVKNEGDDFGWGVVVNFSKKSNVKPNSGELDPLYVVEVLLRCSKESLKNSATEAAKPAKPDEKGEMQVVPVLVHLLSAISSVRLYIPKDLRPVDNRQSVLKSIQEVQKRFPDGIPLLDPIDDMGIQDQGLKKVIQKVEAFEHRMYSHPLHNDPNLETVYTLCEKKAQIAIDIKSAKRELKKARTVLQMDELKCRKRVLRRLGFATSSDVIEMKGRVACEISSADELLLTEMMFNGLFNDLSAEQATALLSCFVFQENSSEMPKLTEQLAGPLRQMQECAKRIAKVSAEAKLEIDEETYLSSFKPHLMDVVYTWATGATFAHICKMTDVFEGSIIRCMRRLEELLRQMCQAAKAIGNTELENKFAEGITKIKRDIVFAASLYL
Briefly: co-IP.

The target in assay [2] is T2, MTR4 (endogenous) (human (endogenous in HeLa S3 and J-Lat 10.6)) (UniProt P42285).
T2 sequence: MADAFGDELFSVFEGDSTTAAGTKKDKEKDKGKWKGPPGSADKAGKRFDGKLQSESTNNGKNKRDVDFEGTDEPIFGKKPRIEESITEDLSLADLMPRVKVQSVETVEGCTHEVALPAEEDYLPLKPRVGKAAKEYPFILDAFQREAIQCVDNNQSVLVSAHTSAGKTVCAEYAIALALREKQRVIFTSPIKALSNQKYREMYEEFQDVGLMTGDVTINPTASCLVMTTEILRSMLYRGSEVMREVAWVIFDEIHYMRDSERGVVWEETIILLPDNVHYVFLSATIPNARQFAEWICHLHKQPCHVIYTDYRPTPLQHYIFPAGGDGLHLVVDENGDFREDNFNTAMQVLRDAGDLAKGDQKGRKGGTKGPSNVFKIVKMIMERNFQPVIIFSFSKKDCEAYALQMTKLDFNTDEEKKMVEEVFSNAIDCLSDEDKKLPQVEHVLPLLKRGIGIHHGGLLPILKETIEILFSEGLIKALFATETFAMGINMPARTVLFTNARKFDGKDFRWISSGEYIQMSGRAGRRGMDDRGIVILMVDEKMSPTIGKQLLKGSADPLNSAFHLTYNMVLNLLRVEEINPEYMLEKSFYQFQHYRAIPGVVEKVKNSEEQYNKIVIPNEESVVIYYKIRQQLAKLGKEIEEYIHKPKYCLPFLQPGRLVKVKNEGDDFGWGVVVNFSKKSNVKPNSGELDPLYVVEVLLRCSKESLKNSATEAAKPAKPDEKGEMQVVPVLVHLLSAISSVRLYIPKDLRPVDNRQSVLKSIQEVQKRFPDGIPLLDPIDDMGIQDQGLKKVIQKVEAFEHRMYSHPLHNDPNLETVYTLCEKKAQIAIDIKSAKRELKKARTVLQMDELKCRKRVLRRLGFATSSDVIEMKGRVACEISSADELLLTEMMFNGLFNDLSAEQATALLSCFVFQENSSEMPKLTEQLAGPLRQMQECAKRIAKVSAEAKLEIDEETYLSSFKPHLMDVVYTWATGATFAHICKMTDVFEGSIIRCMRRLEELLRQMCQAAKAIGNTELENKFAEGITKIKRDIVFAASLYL
Briefly: co-IP.

The target in assay [3] is T1, Flag-HA-MTR4. The experiment in a line: co-sedimentation.
Assay [4] deals with T2, MTR4 (endogenous) (human (endogenous in HeLa S3 and J-Lat 10.6)). The experiment in a line: co-IP; co-immunoprecipitation of the endogenous proteins with antibodies to ZFC3H1, ZCCHC8, MTR4, RRP6 and RBM7; immunoblot; cells not given.
For assay [5], the target named is T3, RRP6 (endogenous) (human (endogenous in HeLa S3 and J-Lat 10.6)) (UniProt Q01780).
T3 sequence: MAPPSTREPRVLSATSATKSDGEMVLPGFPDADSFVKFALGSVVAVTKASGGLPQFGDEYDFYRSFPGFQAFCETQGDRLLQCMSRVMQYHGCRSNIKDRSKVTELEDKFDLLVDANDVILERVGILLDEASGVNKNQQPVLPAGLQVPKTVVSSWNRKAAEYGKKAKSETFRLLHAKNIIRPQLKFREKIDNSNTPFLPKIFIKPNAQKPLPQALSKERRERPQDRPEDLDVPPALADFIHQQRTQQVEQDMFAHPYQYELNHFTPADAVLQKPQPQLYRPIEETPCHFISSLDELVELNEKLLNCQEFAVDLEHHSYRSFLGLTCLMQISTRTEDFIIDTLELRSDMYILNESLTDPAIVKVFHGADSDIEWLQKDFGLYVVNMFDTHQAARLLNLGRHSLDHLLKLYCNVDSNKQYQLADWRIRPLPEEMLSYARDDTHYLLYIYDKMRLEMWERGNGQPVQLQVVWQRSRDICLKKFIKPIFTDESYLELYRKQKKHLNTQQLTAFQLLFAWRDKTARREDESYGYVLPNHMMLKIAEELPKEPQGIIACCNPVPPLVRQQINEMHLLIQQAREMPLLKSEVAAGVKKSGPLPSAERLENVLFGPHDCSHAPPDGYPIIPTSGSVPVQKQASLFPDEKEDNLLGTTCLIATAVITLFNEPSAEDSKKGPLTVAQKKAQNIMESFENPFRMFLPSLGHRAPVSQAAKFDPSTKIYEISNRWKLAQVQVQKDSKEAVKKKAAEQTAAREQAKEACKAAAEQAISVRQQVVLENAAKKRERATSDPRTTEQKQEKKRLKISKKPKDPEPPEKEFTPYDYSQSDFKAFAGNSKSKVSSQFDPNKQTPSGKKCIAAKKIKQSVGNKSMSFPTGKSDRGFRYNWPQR
The assay is described as above.

Assay [6] deals with T4, Flag-HA-RRP6 (human) (UniProt Q01780).
T4 sequence: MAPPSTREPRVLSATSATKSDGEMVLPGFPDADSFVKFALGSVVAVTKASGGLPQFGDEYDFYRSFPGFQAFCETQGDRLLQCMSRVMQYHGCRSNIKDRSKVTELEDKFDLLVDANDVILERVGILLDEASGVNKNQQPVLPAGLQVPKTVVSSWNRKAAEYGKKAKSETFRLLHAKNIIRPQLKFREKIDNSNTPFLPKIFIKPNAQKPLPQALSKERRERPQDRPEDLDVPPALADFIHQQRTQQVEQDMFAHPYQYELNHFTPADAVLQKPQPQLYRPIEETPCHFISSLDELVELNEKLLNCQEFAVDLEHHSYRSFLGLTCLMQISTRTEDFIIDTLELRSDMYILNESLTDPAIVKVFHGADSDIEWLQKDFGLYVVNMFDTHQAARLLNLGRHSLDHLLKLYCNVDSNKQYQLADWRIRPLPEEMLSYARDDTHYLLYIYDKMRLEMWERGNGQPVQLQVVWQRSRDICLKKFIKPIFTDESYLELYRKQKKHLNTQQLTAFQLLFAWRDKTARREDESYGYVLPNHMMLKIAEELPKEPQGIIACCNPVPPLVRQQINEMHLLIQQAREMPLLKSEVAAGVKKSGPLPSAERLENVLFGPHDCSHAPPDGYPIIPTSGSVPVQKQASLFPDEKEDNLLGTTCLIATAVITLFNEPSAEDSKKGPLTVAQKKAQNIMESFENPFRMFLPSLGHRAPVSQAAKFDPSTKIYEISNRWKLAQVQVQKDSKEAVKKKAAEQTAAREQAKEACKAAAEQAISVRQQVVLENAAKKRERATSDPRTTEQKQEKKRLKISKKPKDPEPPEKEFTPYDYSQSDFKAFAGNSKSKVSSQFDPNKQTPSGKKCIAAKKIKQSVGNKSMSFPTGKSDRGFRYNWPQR
Briefly: co-IP.

Assay [7] has as its target T3, RRP6 (endogenous) (human (endogenous in HeLa S3 and J-Lat 10.6)). The experiment in a line: co-IP.
Assay [8] has as its target T4, Flag-HA-RRP6 (human). Briefly: co-sedimentation.

For ZFC3H1 (from UniProt O60293 1-1989), the binding result with Flag-HA-MTR4 [1] is on record as “binds”; in assay [2], “binds”; with Flag-HA-MTR4 [3] it was “binds”; in assay [4] it was “binds”; in assay [5], “binds weakly”.

B1: RRP6 (endogenous) (protein, UniProt Q01780 1-885)
chain: MAPPSTREPRVLSATSATKSDGEMVLPGFPDADSFVKFALGSVVAVTKASGGLPQFGDEYDFYRSFPGFQAFCETQGDRLLQCMSRVMQYHGCRSNIKDRSKVTELEDKFDLLVDANDVILERVGILLDEASGVNKNQQPVLPAGLQVPKTVVSSWNRKAAEYGKKAKSETFRLLHAKNIIRPQLKFREKIDNSNTPFLPKIFIKPNAQKPLPQALSKERRERPQDRPEDLDVPPALADFIHQQRTQQVEQDMFAHPYQYELNHFTPADAVLQKPQPQLYRPIEETPCHFISSLDELVELNEKLLNCQEFAVDLEHHSYRSFLGLTCLMQISTRTEDFIIDTLELRSDMYILNESLTDPAIVKVFHGADSDIEWLQKDFGLYVVNMFDTHQAARLLNLGRHSLDHLLKLYCNVDSNKQYQLADWRIRPLPEEMLSYARDDTHYLLYIYDKMRLEMWERGNGQPVQLQVVWQRSRDICLKKFIKPIFTDESYLELYRKQKKHLNTQQLTAFQLLFAWRDKTARREDESYGYVLPNHMMLKIAEELPKEPQGIIACCNPVPPLVRQQINEMHLLIQQAREMPLLKSEVAAGVKKSGPLPSAERLENVLFGPHDCSHAPPDGYPIIPTSGSVPVQKQASLFPDEKEDNLLGTTCLIATAVITLFNEPSAEDSKKGPLTVAQKKAQNIMESFENPFRMFLPSLGHRAPVSQAAKFDPSTKIYEISNRWKLAQVQVQKDSKEAVKKKAAEQTAAREQAKEACKAAAEQAISVRQQVVLENAAKKRERATSDPRTTEQKQEKKRLKISKKPKDPEPPEKEFTPYDYSQSDFKAFAGNSKSKVSSQFDPNKQTPSGKKCIAAKKIKQSVGNKSMSFPTGKSDRGFRYNWPQR
Turning to B1, the binding result (with Flag-HA-MTR4 [1]; in assay [2]; with Flag-HA-MTR4 [3]; in assay [4]) was “binds” throughout.

B2: ZCCHC8 (protein, UniProt Q6NZY4 1-707)
chain: MAAEVYFGDLELFEPFDHPEESIPKPVHTRFKDDDGDEEDENGVGDAELRERLRQCEETIEQLRAENQELKRKLNILTRPSGILVNDTKLDGPILQILFMNNAISKQYHQEIEEFVSNLVKRFEEQQKNDVEKTSFNLLPQPSSIVLEEDHKVEESCAIKNNKEAFSVVGSVLYFTNFCLDKLGQPLLNENPQLSEGWEIPKYHQVFSHIVSLEGQEIQVKAKRPKPHCFNCGSEEHQMKDCPMPRNAARISEKRKEYMDACGEANNQNFQQRYHAEEVEERFGRFKPGVISEELQDALGVTDKSLPPFIYRMRQLGYPPGWLKEAELENSGLALYDGKDGTDGETEVGEIQQNKSVTYDLSKLVNYPGFNISTPRGIPDEWRIFGSIPMQACQQKDVFANYLTSNFQAPGVKSGNKRSSSHSSPGSPKKQKNESNSAGSPADMELDSDMEVPHGSQSSESFQFQPPLPPDTPPLPRGTPPPVFTPPLPKGTPPLTPSDSPQTRTASGAVDEDALTLEELEEQQRRIWAALEQAESVNSDSDVPVDTPLTGNSVASSPCPNELDLPVPEGKTSEKQTLDEPEVPEIFTKKSEAGHASSPDSEVTSLCQKEKAELAPVNTEGALLDNGSVVPNCDISNGGSQKLFPADTSPSTATKIHSPIPDMSKFATGITPFEFENMAESTGMYLRIRSLLKNSPRNQQKNKKASE
As to B2, the binding entry (with Flag-HA-MTR4 [1]; with Flag-HA-RRP6 (human) [6]; in assay [2]; in assay [7]; with Flag-HA-MTR4 [3]; with Flag-HA-RRP6 (human) [8]) was “binds” in each case. Besides, the binding result in assay [4] and in assay [5] was “binds” in each case.

The values above are taken from PMC5875879.
